Experimental data reported in publication doi:10.1101/2025.10.17.25337589.
No constants are given. Whether binding was seen depends on the method and setting. In cells and extracts the contact can be indirect. These calls come from enrichment with a bait or labelling near it, and not all partners need be listed.

Protein sequences, listed by entry. Tags and fused reporters are not part of them.
UniProt P38159: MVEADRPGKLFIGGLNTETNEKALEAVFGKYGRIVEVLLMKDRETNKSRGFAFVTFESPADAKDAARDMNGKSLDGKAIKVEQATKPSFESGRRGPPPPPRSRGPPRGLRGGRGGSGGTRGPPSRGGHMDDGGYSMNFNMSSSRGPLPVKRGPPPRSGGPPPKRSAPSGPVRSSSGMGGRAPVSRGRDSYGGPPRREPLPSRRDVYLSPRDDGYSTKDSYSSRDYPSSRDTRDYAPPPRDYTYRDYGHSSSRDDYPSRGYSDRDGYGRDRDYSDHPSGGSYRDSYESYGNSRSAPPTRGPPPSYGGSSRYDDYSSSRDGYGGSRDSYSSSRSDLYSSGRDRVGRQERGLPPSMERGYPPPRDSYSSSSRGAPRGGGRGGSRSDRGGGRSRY
UniProt Q96E39: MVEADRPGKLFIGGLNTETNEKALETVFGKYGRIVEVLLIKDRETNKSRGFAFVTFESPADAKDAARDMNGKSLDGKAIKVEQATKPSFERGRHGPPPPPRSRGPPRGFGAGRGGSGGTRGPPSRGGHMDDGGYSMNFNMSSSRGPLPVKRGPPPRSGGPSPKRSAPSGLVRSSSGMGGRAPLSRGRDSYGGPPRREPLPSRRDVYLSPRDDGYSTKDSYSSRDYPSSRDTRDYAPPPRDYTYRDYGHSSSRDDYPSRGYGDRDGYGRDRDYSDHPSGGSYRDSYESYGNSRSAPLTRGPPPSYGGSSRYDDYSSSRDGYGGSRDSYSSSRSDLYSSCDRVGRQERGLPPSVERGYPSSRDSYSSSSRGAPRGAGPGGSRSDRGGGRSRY

Experiments:
[1] = biological target: HA-tagged wild-type human RBMX (human) (UniProt P38159); assay: affinity purification with mass spectrometry
[2] = biological target: HA-tagged wild-type human RBMXL1 (human) (UniProt Q96E39); assay: affinity purification with mass spectrometry

| Binder | binding [1] | binding [2] |
| --- | --- | --- |
| HNRNPDL (protein, UniProt O14979 1-420) MEVPPRLSHVPPPLFPSAPATLASRSLSHWRPRPPRQLAPLLPSLAPSSARQGARRAQRHVTAQQPSRLAGGAAIKGGRRRRPDLFRRHFKSSSIQRSAAAAAATRTARQHPPADSSVTMEDMNEYSNIEEFAEGSKINASKNQQDDGKMFIGGLSWDTSKKDLTEYLSRFGEVVDCTIKTDPVTGRSRGFGFVLFKDAASVDKVLELKEHKLDGKLIDPKRAKALKGKEPPKKVFVGGLSPDTSEEQIKEYFGAFGEIENIELPMDTKTNERRGFCFITYTDEEPVKKLLESRYHQIGSGKCEIKVAQPKEVYRQQQQQQKGGRGAAAGGRGGTRGRGRGQGQNWNQGFNNYYDQGYGNYNSAYGGDQNYSGYGGYDYTGYNYGNYGYGQGYADYSGQQSTYGKASRGGGNHQNNYQPY | binds | binds |
| MATR3 (protein, UniProt P43243 1-847) MSKSFQQSSLSRDSQGHGRDLSAAGIGLLAAATQSLSMPASLGRMNQGTARLASLMNLGMSSSLNQQGAHSALSSASTSSHNLQSIFNIGSRGPLPLSSQHRGDADQASNILASFGLSARDLDELSRYPEDKITPENLPQILLQLKRRRTEEGPTLSYGRDGRSATREPPYRVPRDDWEEKRHFRRDSFDDRGPSLNPVLDYDHGSRSQESGYYDRMDYEDDRLRDGERCRDDSFFGETSHNYHKFDSEYERMGRGPGPLQERSLFEKKRGAPPSSNIEDFHGLLPKGYPHLCSICDLPVHSNKEWSQHINGASHSRRCQLLLEIYPEWNPDNDTGHTMGDPFMLQQSTNPAPGILGPPPPSFHLGGPAVGPRGNLGAGNGNLQGPRHMQKGRVETSRVVHIMDFQRGKNLRYQLLQLVEPFGVISNHLILNKINEAFIEMATTEDAQAAVDYYTTTPALVFGKPVRVHLSQKYKRIKKPEGKPDQKFDQKQELGRVIHLSNLPHSGYSDSAVLKLAEPYGKIKNYILMRMKSQAFIEMETREDAMAMVDHCLKKALWFQGRCVKVDLSEKYKKLVLRIPNRGIDLLKKDKSRKRSYSPDGKESPSDKKSKTDGSQKTESSTEGKEQEEKSGEDGEKDTKDDQTEQEPNMLLESEDELLVDEEEAAALLESGSSVGDETDLANLGDVASDGKKEPSDKAVKKDGSASAAAKKKLKKVDKIEELDQENEAALENGIKNEENTEPGAESSENADDPNKDTSENADGQSDENKDDYTIPDEYRIGPYQPNVPVGIDYVIPKTGFYCKLCSLFYTNEEVAKNTHCSSLPHYQKLKKFLNKLAEERRQKKET |  | binds |
| TRA2B (protein, UniProt P62995 1-288) MSDSGEQNYGERESRSASRSGSAHGSGKSARHTPARSRSKEDSRRSRSKSRSRSESRSRSRRSSRRHYTRSRSRSRSHRRSRSRSYSRDYRRRHSHSHSPMSTRRRHVGNRANPDPNCCLGVFGLSLYTTERDLREVFSKYGPIADVSIVYDQQSRRSRGFAFVYFENVDDAKEAKERANGMELDGRRIRVDFSITKRPHTPTPGIYMGRPTYGSSRRRDYYDRGYDRGYDDRDYYSRSYRGGGGGGGGWRAAQDRDQIYRRRSPSPYYSRGGYRSRSRSRSYSPRRY |  | binds |
| SRSF7 (protein, UniProt Q16629 1-238) MSRYGRYGGETKVYVGNLGTGAGKGELERAFSYYGPLRTVWIARNPPGFAFVEFEDPRDAEDAVRGLDGKVICGSRVRVELSTGMPRRSRFDRPPARRPFDPNDRCYECGEKGHYAYDCHRYSRRRRSRSRSRSHSRSRGRRYSRSRSRSRGRRSRSASPRRSRSISLRRSRSASLRRSRSGSIKGSRYFQSPSRSRSRSRSISRPRSSRSKSRSPSPKRSRSPSGSPRRSASPERMD |  | binds |
